Out of some 53,000 sequences screened, about 3,700 (7%) were called active.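 Rule for the calls: active = gene knockdowns whose robust z-score for IL-1 alpha signal is at least 2 or at most -2, so actives lie on both sides; inactive = the rest.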 This is one part of the list.
assay: Components of the Cytosolic LPS Sensing Pathway: Gene Identification via Genome-wide siRNA Screen; settings: RAW264.7 macrophages, IL-1a HTRF, actives lie on both sides, screened at 100 nM (by protocol), cells primed 5 h with Pam3CSK4 first;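 note: robust z of the log signal after scaling to non-targeting control siRNA wells of the plate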
Summary of the method: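 IL-1a HTRF of supernatants after 24 hour LipidA transfection of Pam3CSK4-primed (5 hours) RAW264.7 cells, 48h post-siRNA transfection (100 nM). Scores: percent of plate negative-control median, then log-based robust z-score.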

| Sequence | z-score |
| --- | --- |
| CCAACAAGUUGCAUGCCUUTT against Mbl1 | inactive: 0.259 |
| GGCAAUGAAGGAAACCAAATT against Mpp1 | inactive: -1.1 |
| GGGCAUCCGGCUUUCAGAATT against Chchd3 | inactive: 0.974 |
| GGGAAUGUGACUACUCCAUTT against Tln2 | inactive: 1.73 |
| GGAUAUUAAAUUCUCAUCCTT against Pus1 | inactive: -0.573 |
| GCCAAAGCUUAAAAAGAAGTT against Gemin5 | inactive: -1.4 |
| GGCACUCUCUCAGAAUUUGTT against Rtn4ip1 | inactive: 0.0411 |
| GGCCCAUAGGUUUCAAAUATT against Ccl22 | inactive: -0.152 |
| CCCUCAGAACCAUUGAGAATT against Max | inactive: 0.1 |
| GGACAGAUGAAGCUGCAUUTT against S100a4 | inactive: -0.422 |
| GCGUGAACACCUGAGGAUUTT against Rchy1 | inactive: -0.323 |
| GCGGUCCACUCCUGUUUGATT against Ypel1 | inactive: -1 |
| GGAUCUGUCUACUUUUCCUTT against Hikeshi | inactive: 0.777 |
| GGCUAUAUCAAUGAAUUUGTT against Polr3b | inactive: 0.393 |
| CCGAUCCAAUGCACCAAACTT against Ostc | inactive: -0.131 |
| GGCUUUCAUGUGCCGUUUUTT against Gstm5 | active: 2.39 |
| GGGACUGGUCGUUUAGGAUTT against Tmie | inactive: -0.199 |
| GGAAAUGACAGGAAAGAUUTT against Zfp35 | inactive: 0.585 |
| GGAUGAUGCUUCUUGAAAATT against Sfrp4 | inactive: -0.78 |
| GGACUUCAAGGAUGCCUACTT against B3galt5 | inactive: -0.311 |
| GCUUCCUCGGUCAAAUAAATT against Cetn1 | inactive: 1.12 |
| GGCUGGAGAAGUAAUGAUATT against Sp100 | inactive: 0.62 |
| GGUAAACACUACCCUAACATT against Cpeb3 | inactive: -1.42 |

Looked up one by one from the list above, four records:

| Sequence | z-score |
| --- | --- |
| GGAUGAUGCUUCUUGAAAATT against Sfrp4 | inactive: -0.78 |
| GGGACUGGUCGUUUAGGAUTT against Tmie | inactive: -0.199 |
| GCCAAAGCUUAAAAAGAAGTT against Gemin5 | inactive: -1.4 |
| GGCAAUGAAGGAAACCAAATT against Mpp1 | inactive: -1.1 |

More results

| Sequence | z-score |
| --- | --- |
| CCAGAAUGAUUAAUAACGGTT against Nsun3 | inactive: -0.675 |
| GGACCAGUUACAGAUGUGGTT against Tor1a | inactive: -0.952 |
| GGAGCACCAAGAAUUUUUUTT against Bcl2l10 | inactive: 0.663 |
| GGCCUCCAAGAUUGUAGGUTT against Prtn3 | inactive: -0.661 |
| GGGAAAGAAUGGUGUGGAATT against Dlx4 | inactive: -1.97 |
| GGGUGAUCAUUCAUCAGUUTT against Mettl7b | inactive: 1.37 |
| GGACAAAUUCUACAUCAGCTT against Adam8 | inactive: 0.0533 |
| GGAAAGUCCACUCUAGUCCTT against Dusp16 | inactive: -1.48 |
| GGGUGAGGAAUAUUAAUUCTT against Tuba1c | inactive: 0.733 |
| GGAAUUAGACUUCUGCGUCTT against Adamts15 | inactive: -0.00667 |
| CGAUACGCUACUGCAGGUGTT against H1f10 | inactive: -1.1 |
| GGUACUAUCACAUCAUUAATT against Olfr1106 | inactive: 0.935 |
| GGAACCUCCUUAUUCAAUGTT against Rspry1 | inactive: 0.0592 |
| GGAAUUCAUGAACUACUAUTT against Capsl | active: -2.07 |
| GGUCUCUCCCAUGUUAAUCTT against Lcn3 | inactive: 0.409 |
| GGUCCUUCUUGUGUAGUCATT against Plac1 | inactive: -0.524 |
| GUUCCCGUUCUACGAGAAGTT against Foxl2 | inactive: 1.22 |
| GGUGUAUAGCUGUUGUGGGTT against Dennd2d | inactive: -1.41 |
| GGGAAAGAUCCAGAACCAGTT against Rsrp1 | inactive: 0.255 |
| GCUGAUUUAUAACAGGCGUTT against Xkr8 | inactive: 0.608 |
| GCUCUAUCGAAUCAUAUUATT against Intu | inactive: -1.47 |
| GCGAUAUUGACUGUGUAUATT against Ypel5 | inactive: 0.256 |
| CGCUUUCUAUACCAGAAGUTT against Lbx1 | inactive: 0.0879 |

| Sequence | z-score |
| --- | --- |
| GGAAAAAGUUCCAAAAGAATT against Kif21b | inactive: -1.01 |
| GCAAUGGACACUGUAUCAATT against Gab2 | inactive: 0.0379 |
| GGGACUGCUAGUAAAGUUCTT against Cabin1 | inactive: 1.06 |
| GGUCACCAUAGAUCGGCAATT against Slamf7 | inactive: 0.093 |
| CGAGAGCGAGUGAAAGAAGTT against Eif4enif1 | inactive: -1.26 |
| GCAUUCGUUCGGCACGUGUTT against Bcl2l14 | inactive: -0.0672 |
| GGUGGUUUUGAGAAUUAACTT against H1f3 | inactive: -0.206 |
| CGCAAGAUACCAACACUUATT against Flad1 | inactive: -0.487 |
| CCUAGCACUAGCCUCCUUATT against Tbx2 | inactive: 1.1 |
| GCAUGAUUAGGUUUCAGCATT against 2310057M21Rik | inactive: -1.31 |
| GGAUGGACCAUCAGCUUCATT against Olfr1152 | active: -2.25 |
| GGAAGAAGAAUAAGGCUUUTT against Tmem189 | inactive: 0.904 |
| GGAGAUGAUGCUCUUCCUGTT against Cflar | inactive: 0.239 |
| GGUCGGGAUUUAAUUUGUATT against Bbs9 | inactive: 0.978 |
| GGCCCUUGUAAGAGUCCUUTT against Olfr381 | inactive: 0.698 |
| GGAAAUAUAUCUGAAAGGGTT against Sphkap | inactive: 0.514 |
| AUCUCAGCGUAGAACGAAUTT against Gm5617 | inactive: -0.309 |
| GCUGAUAAACCACUUGUGATT against Olfr1287 | inactive: -0.804 |
| GGAAAUCGAGCAUGUCUUCTT against Stk32c | active: 2.21 |
| GGAGCUGAUGUAGCCUUCATT against Yif1a | inactive: -1.97 |
| GGACAAUAGUGUGCUACCATT against Mrpl42 | inactive: 0.704 |
| GGUAGUCAAGUCGAAAGUATT against Ccdc18 | active: -2.19 |
